These are yes or no findings as the source states them, for the method shown. Binding can be weak; no strength is given.
Target: GST-FIP fusion (Arabidopsis thaliana) (UniProt F4KAZ9)
Assay: pull-down; GST-FIP with purified FtsH5 (1 μg) and agarose (GST) beads, 4 h on ice; 50 mM Tris-HCl, 200 mM NaCl, 1 mM EDTA, 1% Nonidet P-40, 1 mM DTT, 10 mM MgCl2, pH 8.0; 5 washes; Western blot with an anti-FtsH5 antibody; both purified

Amino acid sequences for entries named in this document (tags omitted). A change or cut given only in a name is not applied to a line headed by its entry.
UniProt F4KAZ9: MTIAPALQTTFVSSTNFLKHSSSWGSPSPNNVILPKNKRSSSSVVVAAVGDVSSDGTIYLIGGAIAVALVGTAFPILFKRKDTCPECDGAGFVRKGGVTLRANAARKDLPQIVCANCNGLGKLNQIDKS
UniProt Q9FH02: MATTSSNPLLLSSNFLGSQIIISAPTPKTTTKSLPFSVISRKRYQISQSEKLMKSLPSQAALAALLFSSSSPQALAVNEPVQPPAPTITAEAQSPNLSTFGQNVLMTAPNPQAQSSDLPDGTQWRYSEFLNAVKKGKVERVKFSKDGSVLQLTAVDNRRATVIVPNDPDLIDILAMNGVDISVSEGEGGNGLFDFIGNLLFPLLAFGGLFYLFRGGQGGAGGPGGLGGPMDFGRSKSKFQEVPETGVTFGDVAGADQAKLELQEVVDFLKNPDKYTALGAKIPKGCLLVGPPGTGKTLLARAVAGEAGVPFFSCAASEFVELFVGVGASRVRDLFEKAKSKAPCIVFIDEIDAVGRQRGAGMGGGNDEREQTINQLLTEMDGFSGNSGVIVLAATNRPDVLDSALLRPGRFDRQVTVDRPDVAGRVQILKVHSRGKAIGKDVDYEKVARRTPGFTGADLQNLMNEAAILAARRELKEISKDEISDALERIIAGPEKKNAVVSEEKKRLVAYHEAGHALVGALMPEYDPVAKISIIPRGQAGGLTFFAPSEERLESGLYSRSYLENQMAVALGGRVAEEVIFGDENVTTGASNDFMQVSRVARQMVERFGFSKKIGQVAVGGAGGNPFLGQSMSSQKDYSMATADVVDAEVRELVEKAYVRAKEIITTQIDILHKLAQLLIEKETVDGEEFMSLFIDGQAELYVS

binding: binds
Substance: recombinant FtsH5 fusion protein, nickel resin-purified (from UniProt Q9FH02) (enzyme)

— PMC5915565
